Source: patent US20180022819A1, “COMPOSITIONS AND METHODS FOR COMBINATION THERAPY WITH PROSTATE-SPECIFIC MEMBRANE ANTIGEN BINDING PROTEINS” (APTEVO RESEARCH AND DEVELOPMENT LLC, priority 2015, published 2018)

Experiments:
LNCaP cells [1] = test: Growth inhibition of LNCaP-GFP cells with primary human T-cells, 4 days, with combination index analysis (Example 6); assay type: cell-based
Experimental: FIG. 4A and FIG. 4B are graphs showing the results of assays measuring the effectiveness of enzalutamide and the anti-PSMA bispecific molecule TSC249 at inhibiting the growth of prostate cancer cells sensitive to both agents (the enzalutamide-sensitive cell line LNCaP). LNCaP cells stably expressing GFP were cultured in 96 well plates for 4 days in the presence of primary human T cells and titrations of either enzalutamide (FIG. 4A) or TSC249 (FIG. 4B). Additional procedures are described in Example 6. Percentage of live cells relative to an untreated control is shown on the y-axis. […]
To study the effects of combining enzalutamide and a bispecific binding molecule targeting PSMA and CD3 (TSC249) to inhibit the growth of prostate cancer cells sensitive to both agents, the enzalutamide-sensitive cell line LNCaP was used in growth inhibition assays. […] Overall fluorescent signal from GFP enabled the quantitation of living LNCaP target cells in isolation from T-cells. […]
After 4 days culture at 37° C. in 5% CO2, media was aspirated from wells and […] of 0.4% NP-40 was added to each well. Fluorescent signal from GFP in LNCaP cells adherent in wells was detected by a Spectramax plate reader, reading from the bottom of the wells. […]

LNCaP cells [2] = test: Effect of enzalutamide on redirected T-cell cytotoxicity in LNCaP cells expressing GFP (Example 1); assay type: cell-based; conditions: Homo sapiens, 96 h, approximate, 4 days, read-out: EC50 for growth inhibition of LNCaP cells
Experimental: A titration of the anti-PSMA bispecific molecule TSC249 (protein sequence of SEQ ID NO: 78 in Table 3) was added to all sets of LNCaP cells in the amounts shown on the x-axis. T-cells and DMSO were added to the first set of LNCaP cells (leftmost set of bars). […] No T-cells and DMSO were added to the third set of LNCaP cells (set of bars second from the right). […] LNCaP cell growth (number of live cells) was measured by overall fluorescence and expressed as a fraction of live cells relative to the cells untreated with TSC249 on the y-axis.
LNCaP cells expressing GFP were cultured with donor T-cells at a 3:1 ratio of T-cells to LNCaP target cells for 4 days. […] DMSO alone was added to other samples. A titration of the anti-PSMA bispecific molecule TSC249 (protein sequence of SEQ ID NO: 78 in Table 3) was added to the cell cultures. LNCaP cell growth (number of live cells) was monitored by overall fluorescence.

Structure (SMILES): CNC(=O)c1ccc(N2C(=S)N(c3ccc(C#N)c(C(F)(F)F)c3)C(=O)C2(C)C)cc1F [enzalutamide]
- interaction by combination index (Chou and Talalay) (LNCaP cells [1]; 1.95-31.25 pM TSC249 at all enzalutamide concentrations used (39, 156, 625 nM)): Synergy
- EC50 (LNCaP cells [1]; 96 h, LNCaP-GFP with primary human T-cells, 4 day time period, enzalutamide alone, read-out: EC50 (decrease in live cells)): 100 to 300 nM
- EC50 (LNCaP cells [2]): ~160 nM
